Measurements: article PMC12115080

Chains of the proteins cited; added tags and fusions are not shown. Lines headed by an entry give the natural chain unless they say otherwise; changes in a name come on top.
UniProt O22764: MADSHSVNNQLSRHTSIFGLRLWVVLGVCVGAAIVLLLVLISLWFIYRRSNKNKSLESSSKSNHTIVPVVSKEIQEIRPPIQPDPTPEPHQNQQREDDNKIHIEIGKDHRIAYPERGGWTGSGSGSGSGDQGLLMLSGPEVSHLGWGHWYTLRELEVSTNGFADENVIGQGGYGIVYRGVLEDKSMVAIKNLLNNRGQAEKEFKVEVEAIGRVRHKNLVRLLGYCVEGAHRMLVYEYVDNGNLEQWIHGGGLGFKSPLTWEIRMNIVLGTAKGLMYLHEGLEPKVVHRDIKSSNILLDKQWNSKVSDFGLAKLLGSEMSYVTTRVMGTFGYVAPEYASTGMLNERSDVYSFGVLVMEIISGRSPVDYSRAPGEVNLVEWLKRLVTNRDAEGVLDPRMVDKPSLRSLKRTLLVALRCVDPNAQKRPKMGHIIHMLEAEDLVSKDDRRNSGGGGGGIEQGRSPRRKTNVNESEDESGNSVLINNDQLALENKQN

Target: T1, AtBIK1 fused to the N-terminal fragment of YFP (Arabidopsis thaliana) (UniProt O48814)
T1 sequence: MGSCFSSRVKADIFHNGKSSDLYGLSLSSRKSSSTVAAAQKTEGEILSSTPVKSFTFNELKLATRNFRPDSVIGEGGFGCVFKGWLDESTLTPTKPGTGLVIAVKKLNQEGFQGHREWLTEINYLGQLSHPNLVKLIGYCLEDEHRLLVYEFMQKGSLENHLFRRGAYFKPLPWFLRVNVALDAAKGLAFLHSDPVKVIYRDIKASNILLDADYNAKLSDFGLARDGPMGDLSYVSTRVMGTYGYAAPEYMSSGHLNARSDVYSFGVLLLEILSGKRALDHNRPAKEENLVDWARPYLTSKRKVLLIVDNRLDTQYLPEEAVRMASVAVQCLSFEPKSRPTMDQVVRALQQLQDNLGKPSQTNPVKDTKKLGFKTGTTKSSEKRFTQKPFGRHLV
Experiment: split reporter; BiFC: RLCKs fused with YFPc co-infiltrated into Nicotiana benthamiana leaves with AtBIK1 fused to YFPn; YFP fluorescence by confocal microscopy 48 h after infiltration

binding: binds
Substance: At4g02630 fused with the C-terminal fragment of YFP (from UniProt O22764)

These are yes or no findings as the source states them, for the method shown. Binding seen in cells or lysates may run through a third protein. Binding can be weak; no strength is given. Tags and fused reporters may be left off the sequences shown.
